Here are results for 3 molecules from PMC8238200.

By UniProt entry, the sequences of proteins in these tests, tags left out. Residues count along the entry.
UniProt B7UNX3: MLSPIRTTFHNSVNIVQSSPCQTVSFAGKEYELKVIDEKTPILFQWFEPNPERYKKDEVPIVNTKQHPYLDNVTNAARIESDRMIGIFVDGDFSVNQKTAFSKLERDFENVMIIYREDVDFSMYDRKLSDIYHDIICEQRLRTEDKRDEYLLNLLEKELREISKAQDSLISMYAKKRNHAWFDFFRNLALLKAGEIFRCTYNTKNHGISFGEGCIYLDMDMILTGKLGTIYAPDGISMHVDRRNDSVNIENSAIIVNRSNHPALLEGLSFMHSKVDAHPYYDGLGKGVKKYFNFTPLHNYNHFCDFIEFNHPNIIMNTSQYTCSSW
UniProt P25445, residues 230-314: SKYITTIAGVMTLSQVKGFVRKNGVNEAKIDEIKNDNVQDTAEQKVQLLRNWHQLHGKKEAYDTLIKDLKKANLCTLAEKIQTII
UniProt Q13158, residues 97-181: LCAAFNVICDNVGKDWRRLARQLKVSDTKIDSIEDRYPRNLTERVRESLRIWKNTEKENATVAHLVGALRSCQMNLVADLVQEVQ

These are yes or no findings as the source states them, for the method shown.

First the molecules themselves.
B1: Death domain of TRADD (domain or fragment, UniProt Q15628 179-289)
chain: PLQPPVPSLSEVKPPPPPPPAQTFLFQGQPVVNRPLSLKDQQTFARSVGLKWRKVGRSLQRGCRALRDPALDSLAYEYEREGLYEQAFQLLRRFVQAEGRRATLQRLVEAL

The experiment deals with NleB2 from EPEC E2348/69 (pGBKT7-NleB2) (enteropathogenic Escherichia coli O127:H6 strain E2348/69) (UniProt B7UNX3). The experiment is described as follows: two-hybrid; pairwise yeast two-hybrid, data not shown.
Regarding “Death domain of FAS (from UniProt P25445 230-314) (domain or fragment)”, the binding result is “no binding”.

As for “Death domain of FADD (from UniProt Q13158 97-181) (domain or fragment)”, the binding result is on record as “no binding”. In the case of B1 it was “no binding”.
